Laboratory results as given in PubChem BioAssay (NCATS).
The list shows a part of the results. Further columns of the screen follow, without active or inactive calls. The list favours compounds with an active or inconclusive main result.
% is scaled to controls: 0 for no effect and ±100 for the full control effect.

Assay: qHTS assay for small molecule antagonists of retinoid X receptor alpha signaling (AID 588546);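 also: cells stimulated with 9-cis-retinoic acid as agonist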
Details: HEK293T RXRa-UAS-bla, beta-lactamase ratio, antagonist mode; measured here: W530 green channel, cytotoxicity proxy
Outline: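 Beta-lactamase reporter inhibition, read as CCF4 fluorescence ratio (ex 405, em 460/530 nm) after 2 h at RT. HEK293T UAS-bla cells, 2500/well, were stimulated with 9-cis-RA at 500 or 100 nM final alongside test compound for 18 h at 37 C.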
Compound `O=C/C(Cl)=C(/Cl)C(=O)O` has a max response of 19.7%. For `C[C@H]1[C@H](c2ccc(Cl)cc2)SC(=O)N1C(=O)NC1CCCCC1`, the max response was 1.32%. Compound `CC(C)C(C(=O)OC(C#N)c1cccc(Oc2ccccc2)c1)c1ccc(Cl)cc1` (stereo unspecified) has a max response of -11.5%. For `COc1ccc(-c2ccccc2)cc1NNC(=O)OC(C)C`, the max response was -5.35%. In the case of `Brc1ccc(Oc2ccc(Br)cc2Br)c(Br)c1`, the max response is reported as -1.71%. With `S=C([S-])NCCNC(=S)[S-].S=C([S-])NCCNC(=S)[S-].[Mn+2].[Zn+2]` the max response was 14.5%.
